Values of other authors as cited in US9771430B2, “Method of treating a metabolic disorder induced by obesity in a subject in need thereof by administering MK2/3 inhibitors” (THE TRUSTEES OF COLUMBIA UNIVERSITY IN THE CITY OF NEW YORK, priority 2011, dated 2017).
pIC50: −log10 of the molar value.

Test system: IL-1 and TNF-α production
Details: read-out: IC50 IL-1 and TNF-α production; LPS-stimulated human monocytes and THP-1; cited from earlier work

SMILES: C[S+]([O-])c1ccc(-c2nc(-c3ccncc3)c(-c3ccc(F)cc3)[nH]2)cc1 (stereo not shown) [SB203580]
- pIC50: 7.00 to 7.30
